Measured values as given in doi:10.1101/693663 (bioRxiv, 2019).
Changes are numbered by the printed parent chain. Names and notes keep the numbering of the source. These are yes or no findings as the source states them, for the method shown. Some binding calls cover weakened binding; strength is not graded here. For some of these results: Tags and fused reporters may be left off the sequences shown. Blank lines part the entries; values can stand above or below the binder they belong to.

Legend:
[1] = target: T1, GST-ASK3 SAM domain (human) (UniProt Q6ZN16); assay: pull-down
T1 sequence: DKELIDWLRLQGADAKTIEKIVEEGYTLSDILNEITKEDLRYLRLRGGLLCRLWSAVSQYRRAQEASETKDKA

[2] = target: T2, ASK1(C1360E) SAM domain (human) (UniProt Q99683); assay: SEC
T2 sequence: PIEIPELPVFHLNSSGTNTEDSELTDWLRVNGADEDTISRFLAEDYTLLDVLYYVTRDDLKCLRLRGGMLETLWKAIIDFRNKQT

[3] = target: T3, GST-ASK1 SAM domain (human) (UniProt Q99683); assay: pull-down
T3 sequence: T2 sequence with E71C

[4] = target: T4, ASK1(1290–1374), C-terminal SAM domain of ASK1 (human) (UniProt Q99683); assay: SEC
T4 sequence: T2 sequence with E71C

[5] = target: ASK1 SAM domain F1369Q (human) (UniProt Q99683); assay: SEC
[6] = target: T5, GST-ASK2 SAM domain (human, UniProt O95382 1216-1288); assay: pull-down
T5 sequence (looked up): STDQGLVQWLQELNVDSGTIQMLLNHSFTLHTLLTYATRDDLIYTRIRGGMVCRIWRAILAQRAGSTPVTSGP

B1: ASK2(1216–1288), C-terminal SAM domain of ASK2 (domain or fragment, UniProt O95382 1216-1288)
chain: T5 sequence (looked up)
binding [1]: binds weakly
binding [2]: no binding

B5: ASK1(C1360E) SAM domain (domain or fragment, UniProt Q99683 1290-1374)
chain: T2 sequence
binding [6]: no binding

Other lines, results leading:

binding [3]: no binding
binding [4]: no binding
B2: ASK2(C1268E) SAM domain (domain or fragment, UniProt O95382 1216-1288)
chain: T5 sequence (looked up) with C53E

binding [1]: binds weakly
B3: ASK3(1241–1313), C-terminal SAM domain of ASK3 (domain or fragment, human, UniProt Q6ZN16 1241-1313, looked up)
chain: T1 sequence

binding [5]: binds weakly
B4: ASK1 SAM domain F1369Q (domain or fragment, UniProt Q99683 1290-1374)
chain: T2 sequence with E71C, F80Q
